No constants are given. Whether binding was seen depends on the method and setting. In cells and extracts the contact can be indirect. A yes stands for co-enrichment or nearness to the bait. Other partners may have been found.
B1: annexin A4 (Anxa4), endogenous in Tregs (protein, UniProt P97429 1-319)
chain: MEAKGGTVKAASGFNATEDAQTLRKAMKGLGTDEDAIIGILAYRNTAQRQEIRSAYKSTIGRDLIEDLKSELSSNFEQVILGLMTPTVLYDVQELRRAMKGAGTDEGCLIEILASRTPEEIRRINQTYQQQYGRSLEEDICSDTSFMFQRVLVSLSAAGRDEGNYLDDALMKQDAQELYEAGEKRWGTDEVKFLSILCSRNRNHLLHVFDEYKRISQKDIEQSIKSETSGSFEDALLAIVKCMRSKPSYFAERLYKSMKGLGTDDNTLIRVMVSRAEIDMLDIRASFKRLYGKSLYSFIKGDTSGDYRKVLLVLCGGDD
B2: ATP-dependent RNA helicase DHX8 (Dhx8), endogenous in Tregs (enzyme, UniProt A2A4P0 1-1244)
chain: MAVAVAAAGVLMGSEPGPAEELAKLEYLSLVSKVCTELDNHLGINDKDLAEFVISLAEKNTTFDTFKASLVKNGAEFTDSLISNLLRLIQTMRPPAKPSTSKDPVVKPKTEKEKLRELFPVLCQPDNPSARTMLDEEDVKVAVDVLKELEALMPSAAGQEKQRDPEHRDRTKKKKRSRSRDRDRDRDRDRDRDRDRDRDRDKDRERDRDRERDRERDRERDHKRRHRSRSRSHSRTRERTKGKSRYRSRSRSQSPFKDRKDREKYGERNLDRWRDKHVDRPPPEEPAIGDIYNGKVTSIMQFGCFVQLEGLRKRWEGLVHISELRREGRVANVADVVSKGQRVKVKVLSFTGTKTSLSMKDVDQETGEDLNPNRRRNLVGETNEETSMRNPDRPTHLSLVSAPEVEDDSLERKRLTRISDPEKWEIKQMIAANVLSKEEFPDFDEETGILPKVDDEEDEDLEIELVEEEPPFLRGHTKQSMDMSPIKIVKNPDGSLSQAAMMQSALAKERRELKQAQREAEMDSIPMGLNKHWVDPLPDAEGRQIAANMRGIGMMPNDIPEWKKHAFGGNKASYGKKTQMSILEQRESLPIYKLKEQLVQAVHDNQILIVIGETGSGKTTQITQYLAEAGYTSRGKIGCTQPRRVAAMSVAKRVSEEFGCCLGQEVGYTIRFEDCTSPETVIKYMTDGMLLRECLIDPDLTQYAIIMLDEAHERTIHTDVLFGLLKKTVQKRQDMKLIVTSATLDAVKFSQYFYEAPIFTIPGRTYPVEILYTKEPETDYLDASLITVMQIHLTEPPGDILVFLTGQEEIDTACEILYERMKSLGPDVPELIILPVYSALPSEMQTRIFDPAPPGSRKVVIATNIAETSLTIDGIYYVVDPGFVKQKVYNSKTGIDQLVVTPISQAQAKQRAGRAGRTGPGKCYRLYTERAYRDEMLTTNVPEIQRTNLASTVLSLKAMGINDLLSFDFMDAPPMETLITAMEQLYTLGALDDEGLLTRLGRRMAEFPLEPMLCKMLIMSVHLGCSEEMLTIVSMLSVQNVFYRPKDKQALADQKKAKFHQTEGDHLTLLAVYNSWKNNKFSNPWCYENFIQARSLRRAQDIRKQMLGIMDRHKLDVVSCGKSTVRVQKAICSGFFRNAAKKDPQEGYRTLIDQQVVYIHPSSALFNRQPEWVVYHELVLTTKEYMREVTTIDPRWLVEFAPAFFKVSDPTKLSKQKKQQRLEPLYNRYEEPNAWRISRAFRRR
B3: protein phosphatase 1 regulatory subunit 12A (Ppp1r12a), endogenous in Tregs (protein, UniProt Q9DBR7 1-1029)
chain: MKMADAKQKRNEQLKRWIGSETDLEPPVVKRQKTKVKFDDGAVFLAACSSGDTDEVLKLLHRGADINYANVDGLTALHQACIDDNVDMVKFLVENGANINQPDNEGWIPLHAAASCGYLDIAEFLIGQGAHVGAVNSEGDTPLDIAEEEAMEELLQNEVNRQGVDIEAARKEEERVMLRDARQWLNSGHISDVRHAKSGGTALHVAAAKGYTEVLKLLIQAGYDVNIKDYDGWTPLHAAAHWGKEEACRILVDNLCDMETVNKVGQTAFDVADEDILGYLEELQKKQTLLHSEKRDKKSPLIESTANMENNQPQKAFKNKETLIIEPEKNASRIESLEHEKADEEEEGKKDESSCSSEEDEEDDSESEAETDKTKPMASVSNAHTSSTQAAPAAVTAPTLSSNQGTPTSPVKKFPISTTKISPKEEERKDESPASWRLGLRKTGSYGALAEISASKEAQKEKDTAGVMRSASSPRLSSSLDNKEKEKDNKGTRLAYVTPTIPRRLASTSDIEEKENRESSSLRTSSSYTRRKWEDDLKKNSSINEGSTYHRSCSFGRRQDDLISCSVPSTTSTPTVTSAAGLQRSLPSSTSTAAKTPPGSSSAGTQSSTSNRLWAEDSTEKEKDSAPTAVTIPVAPTVVNAAAPSTTTLTTTTAGTVSEVRERRRSYLTPVRDEESESQRKARSRQARQSRRSTQGVTLTDLQEAEKTIGRSRSTRTREQENEEKEKEEKEKQDKEKQEEKKESEASREDEYKQKYSRTYDETYTRYRPVSTSSSSAPSSSSLSTLGSTLYASSQLNRPNSLVGITSAYSRGLAKENEREGEKKEEEKEGEDKSQPKSIRERRRPREKRRSTGVSFWTQDSDENEQERQSDTEDGSSKRETQTDSVSRYDSSSTSSSDRYDSLLGRSASYSYLEDRKPYSSRLEKDDSTDFKKLYEQILAENEKLKAQLHDTNMELTDLKLQLEKATQRQERFADRSQLEMEKRERRALERRISEMEEELKMLPDLKADNQRLKDENGALIRVISKLSK

By UniProt entry, the sequences of proteins in these tests, tags left out. Where a name states a change or a piece, a line headed by the entry shows the natural chain unless it says otherwise.
UniProt B2UKV9: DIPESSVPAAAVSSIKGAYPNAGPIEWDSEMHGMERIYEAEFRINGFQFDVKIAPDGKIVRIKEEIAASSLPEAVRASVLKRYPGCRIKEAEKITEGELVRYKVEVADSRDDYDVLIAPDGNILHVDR
UniProt Q6PIJ4: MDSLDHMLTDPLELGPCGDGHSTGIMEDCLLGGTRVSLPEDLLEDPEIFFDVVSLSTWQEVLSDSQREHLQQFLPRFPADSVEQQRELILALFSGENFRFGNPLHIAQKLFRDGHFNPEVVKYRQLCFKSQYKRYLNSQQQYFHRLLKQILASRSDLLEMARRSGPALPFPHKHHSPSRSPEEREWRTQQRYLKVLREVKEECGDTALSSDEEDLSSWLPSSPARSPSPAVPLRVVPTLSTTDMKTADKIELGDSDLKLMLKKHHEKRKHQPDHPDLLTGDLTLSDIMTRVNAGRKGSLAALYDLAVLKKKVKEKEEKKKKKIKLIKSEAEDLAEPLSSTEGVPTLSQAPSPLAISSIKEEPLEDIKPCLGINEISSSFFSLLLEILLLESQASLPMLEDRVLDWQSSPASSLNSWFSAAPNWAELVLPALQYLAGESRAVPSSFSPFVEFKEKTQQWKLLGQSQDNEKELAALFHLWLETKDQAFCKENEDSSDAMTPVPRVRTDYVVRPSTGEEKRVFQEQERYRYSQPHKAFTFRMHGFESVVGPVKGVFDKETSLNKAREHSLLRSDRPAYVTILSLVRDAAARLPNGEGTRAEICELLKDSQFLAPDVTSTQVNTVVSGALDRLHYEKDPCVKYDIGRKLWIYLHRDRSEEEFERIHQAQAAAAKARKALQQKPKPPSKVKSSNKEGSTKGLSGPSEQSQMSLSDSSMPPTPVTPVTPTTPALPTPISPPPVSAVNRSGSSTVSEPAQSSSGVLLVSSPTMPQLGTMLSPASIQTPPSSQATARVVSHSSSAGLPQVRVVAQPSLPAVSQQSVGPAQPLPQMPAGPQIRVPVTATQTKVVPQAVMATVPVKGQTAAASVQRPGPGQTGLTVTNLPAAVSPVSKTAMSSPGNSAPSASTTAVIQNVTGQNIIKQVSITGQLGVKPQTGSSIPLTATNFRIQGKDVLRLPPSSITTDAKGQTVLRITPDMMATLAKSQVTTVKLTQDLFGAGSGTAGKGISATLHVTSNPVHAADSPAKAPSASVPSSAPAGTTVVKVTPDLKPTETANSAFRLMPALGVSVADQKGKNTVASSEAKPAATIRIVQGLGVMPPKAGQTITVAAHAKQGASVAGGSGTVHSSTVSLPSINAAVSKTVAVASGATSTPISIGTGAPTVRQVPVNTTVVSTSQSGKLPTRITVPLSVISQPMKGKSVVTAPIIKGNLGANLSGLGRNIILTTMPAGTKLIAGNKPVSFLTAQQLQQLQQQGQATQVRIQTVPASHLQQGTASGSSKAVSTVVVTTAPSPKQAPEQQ

Target: His-tagged Amuc_1409 protein (Akkermansia muciniphila) (UniProt B2UKV9)
Test: affinity purification with mass spectrometry; Dynabeads His-tag magnetic beads preincubated with vehicle or His-tagged Amuc_1409 in PBS for 2 h at room temperature, washed with 0.01% PBST, incubated with Tregs cell lysates overnight at 4 °C, washed four times with 0.01% PBST; bound proteins identified by label-free quantitative proteomics; only the target purified

Row | binding | Molecule
1 | binds | nuclear factor related to kappa-B-binding protein (Nfrkb), endogenous in Tregs (from UniProt Q6PIJ4 1-1296)
2 | binds | B1
3 | binds | B2
4 | binds | B3
